No constants are given. Whether binding was seen depends on the method and setting. In cells and extracts the contact can be indirect. Binding calls can cover weak binding; strength is not graded here.

Protein sequences, listed by entry. Tags and fused reporters are not part of them. Lines headed by an entry give the natural chain unless they say otherwise; changes in a name come on top.
UniProt Q06144: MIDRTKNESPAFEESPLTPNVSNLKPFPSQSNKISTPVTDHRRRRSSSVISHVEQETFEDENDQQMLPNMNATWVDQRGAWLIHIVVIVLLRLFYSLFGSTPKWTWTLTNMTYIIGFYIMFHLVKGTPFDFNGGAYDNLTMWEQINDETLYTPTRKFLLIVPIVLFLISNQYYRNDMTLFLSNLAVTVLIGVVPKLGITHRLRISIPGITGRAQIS

This assay has as its target FLAG-Orm2^KR (non-ubiquitinatable Orm2 mutant) (S. cerevisiae) (UniProt Q06144). Briefly: co-IP; non-denaturing immunoprecipitation of the substrate (FLAG-Hmx1, FLAG-Orm2^KR on anti-FLAG M2 beads; Yif1-HA on anti-HA beads) from yeast lysate solubilised with glyco-diosgenin, 4 °C, washes up to 300 mM NaCl; Western blot; WT cells, also ubx3Δ, dsc3Δ and tul1Δ cells.

B1: Dsc2 (rhomboid pseudo-protease subunit of the Dsc complex) (protein, UniProt Q08232 1-322)
chain: MSMEPPVGLTAMPVTKLAMITTLVVPLVASIASYKHIFLLQYDPFLQTYHQYYRLLIFQFCAINESDTVILALIWYLFRHLERLLGSHKYLTLIVLSWAYTTLGIWGLNLIWNAFIGQYKWLQWNNFSTGSLPIVLSLVHFYKEYTPQIYEWNIRLLGPRGGASSHNDNKREDKSAVEWKINDQFLLNGLILLLILNQGFAGILCGFISWMCGIFIDKGLLPGLDHWRIPFVSYFISQGPPTRANVAIAANAATNTAAARATVEAATAATGNGNTGNSGPTSLPLRGSSTTPTNTSSAGDDEPGADEPARPLGVQFLDTFRR
Turning to B1, the binding entry is “binds”.

Source of the values: PMC11513148.
